Reference: article PMC3257293
No constants are given. Whether binding was seen depends on the method and setting. Some binding calls cover weakened binding; strength is not graded here. Tags and fused reporters may be left off the sequences shown.

Legend:
[1] = molecular target: T1, Bfa1^4A (SSS452AAA S559A), fused to the DNA binding domain in pGilda (S. cerevisiae) (UniProt P47113); assay: two-hybrid; Cdc5, Tem1 and Bub2 fused to the activation domain in pJG4-5; Bfa1 and each Bfa1 mutant fused to the DNA binding domain in pGilda; yeast strain EGY48 with the reporter plasmid pSH18-34; measured quantitatively
T1 sequence: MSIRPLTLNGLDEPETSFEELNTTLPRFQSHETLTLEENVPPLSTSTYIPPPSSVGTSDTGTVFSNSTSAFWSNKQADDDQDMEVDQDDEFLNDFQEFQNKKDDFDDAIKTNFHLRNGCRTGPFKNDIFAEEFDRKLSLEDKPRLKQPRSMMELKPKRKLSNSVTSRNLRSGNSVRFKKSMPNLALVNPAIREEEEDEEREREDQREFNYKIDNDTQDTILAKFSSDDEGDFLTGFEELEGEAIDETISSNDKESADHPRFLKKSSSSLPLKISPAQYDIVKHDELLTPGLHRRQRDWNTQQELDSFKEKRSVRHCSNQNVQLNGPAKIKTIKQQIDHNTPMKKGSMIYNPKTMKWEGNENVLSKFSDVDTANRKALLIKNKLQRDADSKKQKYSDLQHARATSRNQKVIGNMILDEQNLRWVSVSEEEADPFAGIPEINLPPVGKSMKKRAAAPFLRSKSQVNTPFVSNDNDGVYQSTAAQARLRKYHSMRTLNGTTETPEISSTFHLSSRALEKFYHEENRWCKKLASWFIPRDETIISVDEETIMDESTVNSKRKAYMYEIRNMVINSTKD

[2] = molecular target: T2, Bfa1^W422A, fused to the DNA binding domain in pGilda (S. cerevisiae) (UniProt P47113); assay: as above
T2 sequence: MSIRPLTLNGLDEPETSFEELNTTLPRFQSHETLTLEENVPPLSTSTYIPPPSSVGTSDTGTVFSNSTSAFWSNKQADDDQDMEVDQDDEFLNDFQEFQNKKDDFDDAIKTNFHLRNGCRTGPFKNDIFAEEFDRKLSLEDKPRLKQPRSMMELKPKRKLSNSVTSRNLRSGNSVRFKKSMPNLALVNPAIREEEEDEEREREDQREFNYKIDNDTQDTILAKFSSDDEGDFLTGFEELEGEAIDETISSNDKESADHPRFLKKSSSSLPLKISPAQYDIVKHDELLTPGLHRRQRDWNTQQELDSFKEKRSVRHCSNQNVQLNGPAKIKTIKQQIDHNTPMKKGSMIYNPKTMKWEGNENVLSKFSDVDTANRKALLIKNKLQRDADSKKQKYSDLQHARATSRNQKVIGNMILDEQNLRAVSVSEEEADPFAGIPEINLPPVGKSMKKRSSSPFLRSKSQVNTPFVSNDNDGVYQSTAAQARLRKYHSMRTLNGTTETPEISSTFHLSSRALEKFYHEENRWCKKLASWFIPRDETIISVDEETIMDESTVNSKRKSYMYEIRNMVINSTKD

B1: Cdc5, fused to the DNA activation domain in pJG4-5 (enzyme, UniProt P32562 1-705)
chain: MSLGPLKAINDKQLNTRSKLVHTPIKGNTADLVGKENHFKQTKRLDPNNDHHHQPAQKKKREKLSALCKTPPSLIKTRGKDYHRGHFLGEGGFARCFQIKDDSGEIFAAKTVAKASIKSEKTRKKLLSEIQIHKSMSHPNIVQFIDCFEDDSNVYILLEICPNGSLMELLKRRKVLTEPEVRFFTTQICGAIKYMHSRRVIHRDLKLGNIFFDSNYNLKIGDFGLAAVLANESERKYTICGTPNYIAPEVLMGKHSGHSFEVDIWSLGVMLYALLIGKPPFQARDVNTIYERIKCRDFSFPRDKPISDEGKILIRDILSLDPIERPSLTEIMDYVWFRGTFPPSIPSTVMSEAPNFEDIPEEQSLVNFKDCMEKSLLLESMSSDKIQRQKRDYISSIKSSIDKLEEYHQNRPFLPHSLSPGGTKQKYKEVVDIEAQRRLNDLAREARIRRAQQAVLRKELIATSTNVIKSEISLRILASECHLTLNGIVEAEAQYKMGGLPKSRLPKIKHPMIVTKWVDYSNKHGFSYQLSTEDIGVLFNNGTTVLRLADAEEFWYISYDDREGWVASHYLLSEKPRELSRHLEVVDFFAKYMKANLSRVSTFGREEYHKDDVFLRRYTRYKPFVMFELSDGTFQFNFKDHHKMAISDGGKLVTYISPSHESTTYPLVEVLKYGEIPGYPESNFREKLTLIKEGLKQKSTIVTVD
- binding [1]: binds
- binding [2]: binds
